Literature values as cited in US8455194B2, “Diagnostic methods” (Isis Innovation Limited, priority 2008, dated 2013).

Test system: SLCO1B1 rs4149056 SNP
Conditions: summary estimate with interval in brackets; cited from earlier work

CC(C)c1c(C(=O)Nc2ccccc2)c(-c2ccccc2)c(-c2ccc(F)cc2)n1CC[C@@H](O)C[C@@H](O)CC(=O)O [Atorvastatin (acid), Atorvastatin]
% higher AUC per C allele among studies of this statin: 54 (24, 92) %
